## Screening data, single-dose tests

Sequences of proteins named here, by UniProt entry; tags and fusion partners are left off. Residues count along the entry.
UniProt I6X8D2, whole entry: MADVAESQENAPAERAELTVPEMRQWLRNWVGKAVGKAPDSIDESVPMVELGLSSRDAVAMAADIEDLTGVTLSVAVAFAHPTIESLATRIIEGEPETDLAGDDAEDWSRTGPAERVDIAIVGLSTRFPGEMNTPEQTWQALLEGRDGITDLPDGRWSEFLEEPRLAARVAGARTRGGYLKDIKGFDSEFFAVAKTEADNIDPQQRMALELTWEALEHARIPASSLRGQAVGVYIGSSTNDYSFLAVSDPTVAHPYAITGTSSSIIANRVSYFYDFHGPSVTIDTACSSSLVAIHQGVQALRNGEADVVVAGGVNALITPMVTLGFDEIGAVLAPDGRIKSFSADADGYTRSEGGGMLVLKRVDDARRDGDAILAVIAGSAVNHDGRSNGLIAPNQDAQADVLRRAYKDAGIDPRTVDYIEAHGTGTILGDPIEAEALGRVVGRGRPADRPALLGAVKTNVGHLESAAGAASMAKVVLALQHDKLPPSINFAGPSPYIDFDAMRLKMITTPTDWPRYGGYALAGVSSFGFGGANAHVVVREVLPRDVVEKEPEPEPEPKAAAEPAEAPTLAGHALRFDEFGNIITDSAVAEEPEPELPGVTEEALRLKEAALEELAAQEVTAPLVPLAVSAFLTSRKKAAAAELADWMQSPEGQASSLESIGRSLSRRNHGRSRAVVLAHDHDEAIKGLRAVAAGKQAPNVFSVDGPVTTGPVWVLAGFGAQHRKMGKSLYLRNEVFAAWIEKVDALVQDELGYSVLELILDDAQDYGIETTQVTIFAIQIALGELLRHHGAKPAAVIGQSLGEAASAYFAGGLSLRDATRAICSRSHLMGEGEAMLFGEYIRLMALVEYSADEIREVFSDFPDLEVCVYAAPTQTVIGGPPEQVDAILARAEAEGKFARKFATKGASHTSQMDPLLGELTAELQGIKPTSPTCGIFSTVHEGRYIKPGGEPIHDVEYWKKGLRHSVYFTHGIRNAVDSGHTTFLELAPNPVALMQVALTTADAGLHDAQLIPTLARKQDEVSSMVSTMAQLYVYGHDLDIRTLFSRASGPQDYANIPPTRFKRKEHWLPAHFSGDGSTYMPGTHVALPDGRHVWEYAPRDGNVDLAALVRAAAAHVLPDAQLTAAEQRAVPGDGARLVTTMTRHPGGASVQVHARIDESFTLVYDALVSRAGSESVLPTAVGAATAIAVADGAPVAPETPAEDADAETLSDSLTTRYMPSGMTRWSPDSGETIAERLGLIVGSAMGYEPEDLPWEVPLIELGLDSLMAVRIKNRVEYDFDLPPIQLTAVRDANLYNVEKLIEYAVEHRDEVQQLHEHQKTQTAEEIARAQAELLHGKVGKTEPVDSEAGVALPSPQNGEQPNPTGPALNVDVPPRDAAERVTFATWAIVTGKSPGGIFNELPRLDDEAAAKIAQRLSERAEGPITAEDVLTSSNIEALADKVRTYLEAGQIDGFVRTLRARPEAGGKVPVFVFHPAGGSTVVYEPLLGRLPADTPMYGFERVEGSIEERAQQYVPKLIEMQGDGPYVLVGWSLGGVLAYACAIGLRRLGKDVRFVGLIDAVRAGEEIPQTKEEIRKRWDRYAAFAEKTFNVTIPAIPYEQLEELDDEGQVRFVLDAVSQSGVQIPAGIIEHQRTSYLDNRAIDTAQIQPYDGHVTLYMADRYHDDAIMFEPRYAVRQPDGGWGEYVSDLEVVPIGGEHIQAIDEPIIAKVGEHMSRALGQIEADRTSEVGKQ
UniProt Q4DA54, 1-478: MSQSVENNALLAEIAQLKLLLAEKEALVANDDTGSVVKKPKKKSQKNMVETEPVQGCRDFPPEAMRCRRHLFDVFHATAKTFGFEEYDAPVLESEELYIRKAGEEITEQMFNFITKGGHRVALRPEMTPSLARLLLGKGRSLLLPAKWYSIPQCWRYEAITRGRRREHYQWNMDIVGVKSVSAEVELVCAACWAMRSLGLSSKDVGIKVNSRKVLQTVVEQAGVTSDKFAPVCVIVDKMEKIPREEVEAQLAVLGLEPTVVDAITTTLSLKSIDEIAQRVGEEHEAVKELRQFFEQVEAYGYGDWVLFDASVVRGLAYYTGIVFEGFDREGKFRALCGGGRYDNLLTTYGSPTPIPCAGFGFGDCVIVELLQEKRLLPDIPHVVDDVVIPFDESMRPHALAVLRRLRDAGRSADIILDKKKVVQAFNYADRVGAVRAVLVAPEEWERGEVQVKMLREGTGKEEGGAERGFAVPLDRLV
UniProt P9WFT3, whole entry: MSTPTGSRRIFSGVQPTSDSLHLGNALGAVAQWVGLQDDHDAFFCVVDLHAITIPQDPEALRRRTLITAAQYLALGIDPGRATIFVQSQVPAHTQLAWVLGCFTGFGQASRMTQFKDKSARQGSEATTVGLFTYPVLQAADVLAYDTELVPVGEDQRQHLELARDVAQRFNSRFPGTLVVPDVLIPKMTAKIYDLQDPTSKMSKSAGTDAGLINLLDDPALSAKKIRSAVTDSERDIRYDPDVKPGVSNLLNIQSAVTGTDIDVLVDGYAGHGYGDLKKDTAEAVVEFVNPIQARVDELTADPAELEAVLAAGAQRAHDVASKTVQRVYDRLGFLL
UniProt P9WPC5, whole entry: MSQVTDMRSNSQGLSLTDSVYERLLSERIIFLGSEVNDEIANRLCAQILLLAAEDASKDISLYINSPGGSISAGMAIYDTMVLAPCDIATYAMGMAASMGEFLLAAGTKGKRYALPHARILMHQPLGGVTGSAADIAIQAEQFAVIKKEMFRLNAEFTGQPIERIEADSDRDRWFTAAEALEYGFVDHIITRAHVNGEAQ
UniProt P9WPC3, whole entry partner: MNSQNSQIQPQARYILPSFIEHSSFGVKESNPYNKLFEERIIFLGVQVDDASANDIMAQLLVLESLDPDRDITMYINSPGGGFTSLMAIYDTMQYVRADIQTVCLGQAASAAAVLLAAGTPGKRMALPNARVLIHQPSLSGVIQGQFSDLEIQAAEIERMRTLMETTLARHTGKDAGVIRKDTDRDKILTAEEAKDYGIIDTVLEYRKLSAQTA

Pks13 thioesterase: 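Polyketide synthase Pks13, Mycobacterium tuberculosis (UniProt I6X8D2). Enzyme assay of the thioesterase domain of polyketide synthase 13; the read-out is not stated. Tested at 30 µM. Higher reads as stronger inhibition (inferred from which compounds were picked for retests). Of about 67,000 compounds tested this way, about 300 (0.46%) reached 50% or more in at least one test.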
TcHisRS: 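Enzyme assay of histidyl-tRNA synthetase; the read-out is not stated. Target: Histidine-tRNA ligase, Trypanosoma cruzi CL Brener (UniProt Q4DA54). Tested at 30 µM. Direction is inferred from retests: higher values go with stronger inhibition. Of about 69,000 compounds tested this way, about 31 (0.045%) reached 50% or more in at least one test.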
MtTrpRS: 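Enzyme assay of tryptophanyl-tRNA synthetase; the read-out is not stated. Target: Tryptophan-tRNA ligase, Mycobacterium tuberculosis (UniProt P9WFT3). Tested at 10 µM. Higher most likely means stronger inhibition; the record gives no direction and few retests gave an IC50. About 65,000 compounds were tested under these conditions; 0.098% (about 64) showed 50% or more at least once.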
ClpP1P2: 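ClpP1P2, Mycobacterium tuberculosis (UniProt P9WPC5 and UniProt P9WPC3). Protease assay of ClpP1P2, read by the AMC dye that it sets free. Concentration: 50 µM. Higher reads as stronger inhibition, judged from the few compounds that gave an IC50. Most other retested compounds had strongly negative values. About 69,000 compounds were tested under these conditions; 0.015% (about 10) showed 50% or more at least once.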

Each number is a percent effect as filed. The controls that fix the scale are not given in the record; negative values are as filed. Compounds were drawn at random from those tested, without regard to their results. A dash means the value is not listed here; it may have been measured.

| # | structure | Pks13 thioesterase | TcHisRS | MtTrpRS | ClpP1P2 |
|---|---|---|---|---|---|
| 1 | `CNC(=O)CCc1cccc(OC2CCCC2)c1` | -14.93 | 0 | -1.242 | 1.602 |
| 2 | `CCOC(=O)CNC(=O)NCc1cccn1Cc1cccc(C)c1` | 12.63 | 2.439 | 6.339 | -7.245 |
| 3 | `CNc1snc(C)c1C(=O)N1CCCC(n2ccnc2C)C1` (stereo not shown) | 3.182 | 5.085 | -8.284 | -18.09 |
| 4 | `COCC1CCN(S(=O)(=O)N2C[C@@H](C)[C@@](C)(O)C2)CC1` | -32.86 | 3.784 | -12.21 | -11.95 |
| 5 | `CCc1c(C)nc(C2CCCN2C(=O)c2cc(C)no2)nc1O` (stereo not shown) | -8.365 | 6.383 | - | -6.599 |
| 6 | `Cc1ncsc1C(=O)NCCNc1ncccn1` | -20.46 | -1.156 | 17.5 | 3.395 |
| 7 | `CN(CCNS(C)(=O)=O)C(=O)c1ccc(Cl)c(Cl)c1` | -28.6 | 0 | -8.497 | 1.761 |
| 8 | `N#Cc1c(Cl)nsc1NCc1ccnc(OCC(F)(F)F)c1` | 34.65 | -3.067 | 0.7712 | 9.301 |
| 9 | `Cc1noc(CNc2ccc(CC(=O)N3CCSCC3)cc2)n1` | 70.29 | 10.23 | -5.178 | 1.691 |
| 10 | `CO[C@H]1CCN(Cc2cccs2)[C@@H]2CN(Cc3ccncc3)C[C@H]12` | 6.628 | 3.333 | - | -1.804 |
| 11 | `Cc1noc(C(C)C)c1C(=O)N1CCOCC1CC(=O)c1ccco1` (stereo not shown) | -9.257 | 2.174 | -4.131 | 6.672 |
| 12 | `O=C(NC1CCCC1)N1CCC2(CC1)CC(Oc1cccnc1)CO2` (stereo not shown) | -2.7 | 4 | 0.08376 | 12.74 |
| 13 | `CCn1cc2c(n1)C(COCC1CC1)CN(C(=O)c1ccsc1)C2` (stereo not shown) | -9.42 | 3.797 | 0.1079 | -5.783 |
| 14 | `Clc1ccc(N2CCC(C3CCN(Cc4cccnc4)CC3)C2)nc1` (stereo not shown) | -29.06 | 10.53 | 1.651 | 1.531 |
| 15 | `CCNC(=O)NC(=O)CN1CCC(c2c[nH]c3ccc(OC)cc23)CC1` | -19.74 | 12.64 | 0.4968 | -12.32 |
| 16 | `Cc1noc(CN(CCc2cccs2)Cc2cccc(C#N)c2)n1` | 8.75 | 4.386 | 0.3589 | -385.8 |
| 17 | `CS(=O)(=O)N1CC(c2n[nH]c3ncccc23)C1` | - | 5.323 | 9.569 | -5.898 |
| 18 | `CCN1CCN(c2ccc(F)cc2C(C)NCc2ccncc2)CC1` (stereo not shown) | -15.46 | 0 | -0.6706 | 0.8393 |
| 19 | `COc1ncccc1CNC(=O)Nc1cc(C)nn1C` | -9.148 | 6.197 | -5.751 | 3.8 |
| 20 | `O=C(Cc1cccc(O)c1)NCCCNC(=O)c1cccc(F)c1` | -4.167 | 4.023 | -0.1947 | -11.8 |
| 21 | `O=C(Cc1ccccn1)N1CCN2C[C@H](Oc3cccc(F)c3)C[C@H]2C1` | -20.79 | 7.182 | 1.482 | -14.42 |
| 22 | `Cc1cc(NC(=O)NCc2cccnc2OC2CCCC2)n(C)n1` | -0.7807 | 5.07 | 0.5112 | 5.549 |
| 23 | `Cn1ccnc1CN1CCC2(CCCN2c2ncccn2)CC1` | -25.37 | 5.882 | -9.379 | 1.284 |
| 24 | `O=C1O[C@@H]2CN(CCc3ccccc3)C[C@@H]2N1CCCN1CCOCC1` | -19.23 | 5.682 | -1.273 | 11.27 |
| 25 | `O=C(O)c1ccccc1C1CCN(C2Cc3ccccc3C2)C1` (stereo not shown) | -3.535 | 6.358 | 0.6189 | 14.61 |
| 26 | `CC(=O)N1CCC(c2cncc(N3CCOCC3)n2)CC1` | 11.14 | 5.426 | -2.605 | 55.4 |
| 27 | `O=C1CCCCN1CCCC(=O)N1CCC2(CC1)[C@H](O)C[C@@H]2O` | -7.977 | 0.8 | -5.636 | -12.1 |
| 28 | `CCOc1cc(C)nc(N2CCN(C(C)c3nc(C)no3)CC2)n1` (stereo not shown) | -30.9 | 7.895 | 0.4128 | -4.099 |
| 29 | `O=C(CN1CCCC(c2ncc[nH]2)C1)NCCCN1CCCCCC1=O` (stereo not shown) | -9.801 | 0.5952 | -4.295 | -11.07 |
| 30 | `CC(=O)c1cc(CN2C[C@@H](C(=O)O)[C@H](c3cccnc3)C2)cs1` | -41.39 | 4.459 | 2.926 | -7.715 |
| 31 | `COC(CNC(=O)c1ccoc1)c1cccc(Cl)c1` (stereo not shown) | -6.635 | 6.173 | 2.056 | -14.39 |
| 32 | `CC(NC(=O)NCCCN1CCCCCC1)c1nncn1C` (stereo not shown) | -9.884 | 0.3831 | -3.013 | 2.227 |
| 33 | `C/N=C1/c2cc3cc(OC)ccc3n2CCN1Cc1ccccc1` | 0.2312 | 25.74 | 0.1608 | -0.5856 |
| 34 | `C[C@@H]1CN(C2CCN(c3ccccc3F)CC2)CC[C@]1(C)O` | -8.999 | 0 | -2.315 | -6.997 |
| 35 | `Cc1nc(C)c(C(=O)N2CCCC(n3ccnc3C)C2)s1` (stereo not shown) | -4.254 | -1 | 0.8482 | -13.29 |
| 36 | `O=C(CCc1cc2n(n1)CCCN(C(=O)c1cccnc1)C2)NC1CC1` | -7.317 | 3.252 | -1.706 | 2.425 |
| 37 | `Cn1cc(CN2CC[C@@H]3[C@@H](CO[C@H]3CNC(=O)c3ccco3)C2)cn1` | -4.41 | 8.04 | 5.595 | -9.328 |
| 38 | `CC(=O)c1ccc(C(=O)NCc2ccnc(N(C)C)n2)cc1` | -7.727 | 1.053 | -1.242 | -8.466 |
| 39 | `Cn1nc(CNC(=O)C2CCCC2)cc1C1CC1` | -12.75 | -1.087 | 16.87 | -6.535 |
| 40 | `OC1(Cn2ccc3ncccc32)CCN(Cc2ccccn2)CC1` | -20.77 | -2.703 | -0.7525 | 9.464 |
| 41 | `Cc1nc2[nH]cnc(Nc3cnn(C)c3)c-2n1` | 12.27 | 1.242 | -22.78 | -12.16 |
| 42 | `CN(C)Cc1cccc(-c2cccnc2C(=O)NCc2cn(C)cn2)c1` | -8.729 | 2.26 | -1.371 | -9.837 |
| 43 | `CN(C)C[C@@H]1CN(C2CCN(c3ccc(Cl)cc3)CC2)C[C@@H]1CO` | -37.56 | -1.657 | -7.529 | -4.398 |
| 44 | `CNS(=O)(=O)c1cccc(C(C)NCc2ccc(C)c(C)c2)c1` (stereo not shown) | -19.93 | -262.1 | 12.83 | 17.1 |
| 45 | `CC(=O)N(Cc1noc(C)n1)C1CCN(Cc2ccccc2C#N)C1` (stereo not shown) | -11.14 | 1.128 | -4.581 | 2.385 |
| 46 | `CCOc1ccc(NC(C)C(=O)Nc2cc(C)no2)cc1` (stereo not shown) | -18.23 | 9.392 | -6.914 | 9.093 |
| 47 | `CCc1c(NCc2ccncc2)cnn1CC(C)C` | - | -0.9852 | -2.557 | 0.5945 |
| 48 | `CC(C)N(C)CC(=O)N(C)Cc1nc(C(F)(F)F)cs1` | - | 6.667 | -5.318 | -1.362 |
| 49 | `O=S(=O)(NCc1cn2ccccc2n1)N1CCOCC1` | 5.418 | -3.571 | 0.9524 | -12.85 |
| 50 | `CC(C)CN1CC(C(=O)NCc2cccnc2-n2cccn2)CC1=O` (stereo not shown) | -11.32 | 1.458 | -3.386 | -41.99 |
| 51 | `CC(C)Cc1cc(C(=O)NCC(O)c2ccc(F)cc2)n(C)n1` (stereo not shown) | -33.11 | 6.579 | -1.858 | 9.889 |
| 52 | `COCC(C)N1CCN(CCc2ccc3c(c2)CCO3)CC1` (stereo not shown) | -18 | 12.95 | -1.052 | 17.65 |
| 53 | `Cc1ccccc1CN(C)C(=O)Cn1nc(-c2ccc(F)cc2)oc1=O` | -41.47 | -4.902 | -2.257 | -5.923 |
| 54 | `CCc1ccc(C(NC(=O)CCS(C)(=O)=O)C(C)(C)C)o1` (stereo not shown) | -2.383 | 6.897 | -1.398 | 1.796 |
| 55 | `CCN(CC)CCn1c(NC(=O)c2scnc2C)nc2ccccc21` | -0.6048 | 3.429 | -1.595 | -1.88 |

The last 6 entries again:

| structure | Pks13 thioesterase | TcHisRS | MtTrpRS | ClpP1P2 |
|---|---|---|---|---|
| `CC(C)CN1CC(C(=O)NCc2cccnc2-n2cccn2)CC1=O` (stereo not shown) | -11.32 | 1.458 | -3.386 | -41.99 |
| `CC(C)Cc1cc(C(=O)NCC(O)c2ccc(F)cc2)n(C)n1` (stereo not shown) | -33.11 | 6.579 | -1.858 | 9.889 |
| `COCC(C)N1CCN(CCc2ccc3c(c2)CCO3)CC1` (stereo not shown) | -18 | 12.95 | -1.052 | 17.65 |
| `Cc1ccccc1CN(C)C(=O)Cn1nc(-c2ccc(F)cc2)oc1=O` | -41.47 | -4.902 | -2.257 | -5.923 |
| `CCc1ccc(C(NC(=O)CCS(C)(=O)=O)C(C)(C)C)o1` (stereo not shown) | -2.383 | 6.897 | -1.398 | 1.796 |
| `CCN(CC)CCn1c(NC(=O)c2scnc2C)nc2ccccc21` | -0.6048 | 3.429 | -1.595 | -1.88 |

Measurements from “University of Dundee, Small-Polar-MMV Screening Library” (2021), ChEMBL document CHEMBL3988442.